Laboratory results taken from article PMC7037221.
Changes are numbered by the printed parent chain. No constants are given. Whether binding was seen depends on the method and setting. In cells and extracts the contact can be indirect. Some results given as binding are weak or reduced against the parent protein; the word gives no strength. For some of these results: Sequences can lack the tags named with a protein.

Protein sequences, listed by entry. Tags and fused reporters are not part of them. Lines headed by an entry give the natural chain unless they say otherwise; changes in a name come on top.
UniProt Q149N8: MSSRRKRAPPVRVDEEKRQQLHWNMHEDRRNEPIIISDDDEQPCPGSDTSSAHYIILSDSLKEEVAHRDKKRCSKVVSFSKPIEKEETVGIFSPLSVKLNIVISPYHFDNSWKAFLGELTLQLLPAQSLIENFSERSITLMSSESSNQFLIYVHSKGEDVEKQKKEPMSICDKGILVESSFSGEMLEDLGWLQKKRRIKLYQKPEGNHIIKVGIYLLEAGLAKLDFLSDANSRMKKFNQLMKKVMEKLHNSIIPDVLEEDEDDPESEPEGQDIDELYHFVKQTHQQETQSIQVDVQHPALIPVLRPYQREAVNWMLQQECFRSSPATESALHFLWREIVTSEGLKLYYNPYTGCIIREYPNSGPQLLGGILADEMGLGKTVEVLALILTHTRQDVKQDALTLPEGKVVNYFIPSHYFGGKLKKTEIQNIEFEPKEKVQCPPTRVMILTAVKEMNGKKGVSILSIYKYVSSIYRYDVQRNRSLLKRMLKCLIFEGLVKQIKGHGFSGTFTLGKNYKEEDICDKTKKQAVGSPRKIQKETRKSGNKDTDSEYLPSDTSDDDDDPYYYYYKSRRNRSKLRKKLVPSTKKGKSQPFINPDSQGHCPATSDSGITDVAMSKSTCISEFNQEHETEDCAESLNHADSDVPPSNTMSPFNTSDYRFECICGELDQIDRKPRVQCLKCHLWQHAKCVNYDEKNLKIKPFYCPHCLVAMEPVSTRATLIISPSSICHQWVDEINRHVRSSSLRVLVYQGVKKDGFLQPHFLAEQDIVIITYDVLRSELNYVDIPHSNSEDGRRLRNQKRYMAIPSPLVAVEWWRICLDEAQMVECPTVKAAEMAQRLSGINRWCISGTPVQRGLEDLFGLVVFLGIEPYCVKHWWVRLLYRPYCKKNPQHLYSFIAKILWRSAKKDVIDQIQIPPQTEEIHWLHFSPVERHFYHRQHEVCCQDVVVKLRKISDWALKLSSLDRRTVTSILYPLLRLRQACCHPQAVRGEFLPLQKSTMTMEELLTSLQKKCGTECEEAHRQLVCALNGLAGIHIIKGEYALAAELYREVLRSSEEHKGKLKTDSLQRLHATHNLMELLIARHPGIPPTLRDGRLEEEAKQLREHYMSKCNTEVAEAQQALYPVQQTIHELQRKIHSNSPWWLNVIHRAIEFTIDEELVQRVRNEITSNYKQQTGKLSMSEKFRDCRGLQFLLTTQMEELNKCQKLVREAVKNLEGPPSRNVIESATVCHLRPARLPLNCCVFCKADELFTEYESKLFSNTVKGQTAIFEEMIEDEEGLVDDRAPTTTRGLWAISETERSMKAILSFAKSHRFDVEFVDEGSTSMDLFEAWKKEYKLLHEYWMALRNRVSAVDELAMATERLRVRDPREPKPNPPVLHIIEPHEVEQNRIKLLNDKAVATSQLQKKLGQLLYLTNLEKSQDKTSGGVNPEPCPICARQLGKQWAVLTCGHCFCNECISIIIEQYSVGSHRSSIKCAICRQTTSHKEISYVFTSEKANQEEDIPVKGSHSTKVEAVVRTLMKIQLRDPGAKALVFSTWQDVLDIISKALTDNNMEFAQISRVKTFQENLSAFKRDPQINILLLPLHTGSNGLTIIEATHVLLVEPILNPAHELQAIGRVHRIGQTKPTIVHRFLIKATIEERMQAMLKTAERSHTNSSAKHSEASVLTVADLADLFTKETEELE
UniProt P12004: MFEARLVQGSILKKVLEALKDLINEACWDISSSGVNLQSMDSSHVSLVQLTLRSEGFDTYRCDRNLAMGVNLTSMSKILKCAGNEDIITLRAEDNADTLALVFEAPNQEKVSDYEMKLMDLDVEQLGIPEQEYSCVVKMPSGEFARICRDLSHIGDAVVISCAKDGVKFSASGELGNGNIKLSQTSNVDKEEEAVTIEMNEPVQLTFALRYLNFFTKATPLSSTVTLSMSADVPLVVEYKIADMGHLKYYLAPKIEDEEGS

Tests used:
Test in all cases: co-IP; HEK293T cells transfected, treated with 50 uM MMS, intact cells gently cross-linked with 0.2% formaldehyde; extract incubated with anti-GFP antibody-coupled protein A paramagnetic beads in IP buffer (20 mM Hepes pH 7.9, 100 mM KCl) at 4 C overnight; cross-links reversed; blot for endogenous PCNA, normalised against total GFP pulled down
[1] = molecular target: GFP-SHPRH F1632A (APIM mutant) (human) (UniProt Q149N8)
[2] = molecular target: GFP-SHPRH (SNF2, histone-linker, PHD and RING finger domain-containing helicase, wild type) (human) (UniProt Q149N8)
[3] = molecular target: T1, YFP-HLTF F960A (APIM mutant) (human) (UniProt Q14527)
T1 sequence: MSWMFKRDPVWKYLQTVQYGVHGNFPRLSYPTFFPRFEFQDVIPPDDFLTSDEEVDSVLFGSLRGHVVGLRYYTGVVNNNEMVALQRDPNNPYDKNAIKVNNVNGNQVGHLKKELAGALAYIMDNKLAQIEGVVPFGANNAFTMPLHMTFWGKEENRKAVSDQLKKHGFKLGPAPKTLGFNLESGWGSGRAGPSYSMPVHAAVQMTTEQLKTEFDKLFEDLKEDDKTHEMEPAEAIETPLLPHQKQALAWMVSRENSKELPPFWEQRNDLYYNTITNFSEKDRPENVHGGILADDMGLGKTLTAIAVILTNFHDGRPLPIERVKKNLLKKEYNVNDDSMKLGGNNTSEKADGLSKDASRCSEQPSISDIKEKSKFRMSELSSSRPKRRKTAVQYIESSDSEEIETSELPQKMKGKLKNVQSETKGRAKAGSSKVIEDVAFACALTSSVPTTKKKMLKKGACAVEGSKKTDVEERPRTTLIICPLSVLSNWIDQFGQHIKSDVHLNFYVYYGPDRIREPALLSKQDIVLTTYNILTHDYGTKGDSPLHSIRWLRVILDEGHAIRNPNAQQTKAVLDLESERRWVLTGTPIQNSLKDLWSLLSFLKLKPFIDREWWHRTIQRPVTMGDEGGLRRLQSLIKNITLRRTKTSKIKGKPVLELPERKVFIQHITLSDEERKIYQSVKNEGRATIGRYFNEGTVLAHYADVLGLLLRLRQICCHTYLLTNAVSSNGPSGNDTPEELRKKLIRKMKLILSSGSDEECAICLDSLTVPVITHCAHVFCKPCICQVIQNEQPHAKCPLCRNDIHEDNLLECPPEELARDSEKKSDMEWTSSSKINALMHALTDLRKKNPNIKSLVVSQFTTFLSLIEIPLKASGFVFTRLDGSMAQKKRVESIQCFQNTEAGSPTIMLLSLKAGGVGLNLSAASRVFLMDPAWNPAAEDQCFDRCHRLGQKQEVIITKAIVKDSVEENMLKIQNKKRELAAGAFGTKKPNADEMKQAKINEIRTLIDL

[4] = molecular target: T2, YFP-HLTF (helicase-like transcription factor, wild type) (human) (UniProt Q14527)
T2 sequence: T1 sequence with A960F

binding [1]: binds
binding [2]: binds
binding [3]: binds
binding [4]: binds
Substance: Proliferating cell nuclear antigen (PCNA), endogenous (from UniProt P12004 1-261)
